Data on two molecules can be found in PMC3009601, “Structural Basis for Apoptosis Inhibition by Epstein-Barr Virus BHRF1” (PLoS Pathogens, 2010).

This test has as its target BHRF1ΔC31 (Epstein-Barr virus) (UniProt P03182). The test is described as follows: ITC; VP-ITC (MicroCal), recombinant BHRF1ΔC31 with BH3 domain peptides; Kd values are the means of 3 experiments ± SD; both purified.

Results are given in words; binding and its absence hold for the method and conditions named.

Turning to DGGTMENLSRRLKVTGDLFDIMSGQT [mmBeclin BH3 peptide (residues 103-128)], the binding entry is listed as “no binding”.

Turning to PGGTTQEVGQLLQDMGDDVYQQYRSL [mouse Mule BH3 peptide (residues 1969-1994)], the binding result is on record as “no binding”.
